From ChEMBL document CHEMBL3102711, “Synthesis and antiproliferative action of a novel series of maprotiline analogues” (Eur J Med Chem, 2014)
pEC50: −log10 of the molar value.

Key:
[1] = Antiproliferative activity against human MUTU-I cells after 24 hrs by Alamar blue assay; assay type: functional, cell-based
Method in brief: (§1)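 MUTU-I (24 h) and DG-75 (72 h) Burkitt lymphoma cells were grown in RPMI-1640 with 10% FBS at 37 °C, seeded at 1-5×10^4 cells/well and exposed to four concentrations (screen range 1 µM–1 mM) in triplicate. Alamar Blue was added for 4-6 h at 37 °C in the dark, then fluorescence was read at 590 nm (ex 544 nm). Viability was taken relative to untreated cells after background subtraction. EC50 came from sigmoidal non-linear regression (Hill slope 1). Miconazole 10 µM was the positive control.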

[2] = Antiproliferative activity against human DG75 cells after 72 hrs by Alamar blue assay; assay type: functional, cell-based; settings: DG-75, 72 h; method in brief: as §1

## CNCCCC12CCC(c3ccccc31)c1ccccc12 [MAPROTILINE]
[1]
  pEC50: 4.80
[2]
  pEC50: 4.43
